Source: PubChem BioAssay AID1259424 (University of Nebraska Medical Center, 2018)
Test: 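Seek colon cancer survival genes behaving like KSR1, using a six-gene signature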 (primary screen). Cell system: human HCT116 colon cancer cells. Knock-down reagent: siRNA pool against human genes, 50 nM. Detection: 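Log2 levels of six mRNAs (branched-DNA multiplex), adjusted by two reference genes and the non-targeting median, then scored against the average KSR1 knockdown pattern as Pearson r and euclidean distance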. Scale: mean correlation with KSR1 profile: higher = expression change more like KSR1 knockdown.
The whole screen tested about 14,000 reagents; this is a part drawn at random. 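Higher correlation or smaller distance means closer resemblance to KSR1 loss; control wells, including KSR1 knockdowns, recur on many plates.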 The numbers tell different reagents against one gene apart. Not all columns of the deposit are shown. The record does not give: the time to read-out.

The first 2 entries as a preview:
| gene | pool no. | mean correlation with KSR1 profile |
| --- | --- | --- |
| COPRS (coordinator of PRMT5 and differentiation stimulator) | 1 | -0.61 |
| TCF7 (transcription factor 7) | 1 | 0.0164 |

Results, from the start:
| gene | pool no. | mean correlation with KSR1 profile |
| --- | --- | --- |
| COPRS (coordinator of PRMT5 and differentiation stimulator) | 1 | -0.61 |
| TCF7 (transcription factor 7) | 1 | 0.0164 |
| HLA-DRB4 (major histocompatibility complex, class II, DR beta 4) | 1 | -0.626 |
| PPIG (peptidylprolyl isomerase G) | 1 | -0.107 |
| LINC01547 (long independently transcribed non-coding RNA 1547) | 1 | 0.965 |
| LINC01547 (long independently transcribed non-coding RNA 1547) | 2 | 0.613 |
| RBBP9 (RB binding protein 9, serine hydrolase) | 1 | -0.298 |
| MAP1S (microtubule associated protein 1S) | 1 | 0.09 |
| SORBS1 (sorbin and SH3 domain containing 1) | 1 | 0.408 |
| CTPS1 (CTP synthase 1) | 1 | -0.335 |
| TTYH1 (tweety family member 1) | 1 | 0.142 |
| RPL21 (ribosomal protein L21) | 1 | -0.212 |
| CCDC47 (coiled-coil domain containing 47) | 1 | -0.774 |
| HCST (hematopoietic cell signal transducer) | 1 | -0.505 |
| BUD13 (BUD13 spliceosome associated protein) | 1 | -0.0315 |
| SCHIP1 (schwannomin interacting protein 1) | 1 | -0.213 |
| PIM1 (Pim-1 proto-oncogene, serine/threonine kinase) | 1 | 0.481 |
| BBOF1 (basal body orientation factor 1) | 1 | -0.164 |
| CARD10 (caspase recruitment domain family member 10) | 1 | 0.586 |
| METAP1 (methionyl aminopeptidase 1) | 1 | 0.22 |
| MAN2B1 (mannosidase alpha class 2B member 1) | 1 | 0.0129 |
| FNBP4 (formin binding protein 4) | 1 | 0.00615 |
| ST6GALNAC5 (ST6 N-acetylgalactosaminide alpha-2,6-sialyltransferase 5) | 1 | 0.246 |
| FDPSP3 (farnesyl diphosphate synthase pseudogene 3) | 1 | -0.0764 |
| CHD7 (chromodomain helicase DNA binding protein 7) | 1 | -0.138 |
| CLIP4 (CAP-Gly domain containing linker protein family member 4) | 1 | 0.55 |
| ATP2B3 (ATPase plasma membrane Ca2+ transporting 3) | 1 | -0.282 |
| CD5L (CD5 molecule like) | 1 | -0.732 |
| ADCY2 (adenylate cyclase 2) | 1 | -0.134 |
| MIEF1 (mitochondrial elongation factor 1) | 1 | 0.111 |
| DIO3 (iodothyronine deiodinase 3) | 1 | -0.0947 |
| GPR26 (G protein-coupled receptor 26) | 1 | 0.103 |
| PLCH1 (phospholipase C eta 1) | 1 | 0.496 |
| FHOD1 (formin homology 2 domain containing 1) | 1 | -0.491 |
| HCN4 | 1 | -0.207 |
| DNAH3 (dynein axonemal heavy chain 3) | 1 | 0.209 |
| SACK1E (scaffolding CK1 anchoring protein E) | 1 | -0.307 |
| ZFPL1 (zinc finger protein like 1) | 1 | 0.262 |
| LGALS9 (galectin 9) | 1 | 0.452 |
| ATF5 (activating transcription factor 5) | 1 | 0.325 |
| MTHFD2L | 1 | 0.927 |
| TRIM3 (tripartite motif containing 3) | 1 | -0.681 |
| ORC5 (origin recognition complex subunit 5) | 1 | 0.24 |
| PTPRH (protein tyrosine phosphatase receptor type H) | 1 | -0.818 |
| YRDC (yrdC N6-threonylcarbamoyltransferase domain containing) | 1 | 0.628 |
| BRCA2 (BRCA2 DNA repair associated) | 1 | 0.66 |
| MRPL4 (mitochondrial ribosomal protein L4) | 1 | -0.449 |
| TG (thyroglobulin) | 1 | 0.334 |
| PROC (protein C, inactivator of coagulation factors Va and VIIIa) | 1 | 0.0407 |
| LANCL1 (LanC like glutathione S-transferase 1) | 1 | 0.664 |
| SUDS3 (SIN3A corepressor complex component SDS3) | 1 | -0.0786 |
| RASA3 (RAS p21 protein activator 3) | 1 | -0.459 |
| SRP14 (signal recognition particle 14) | 1 | -0.206 |
| AOAH (acyloxyacyl hydrolase) | 1 | -0.578 |
| KIDINS220 (kinase D interacting substrate 220) | 1 | 0.48 |
| DOCK8 (dedicator of cytokinesis 8) | 1 | 0.183 |
| SLK (STE20 like kinase) | 1 | 0.169 |
| COPZ2 (coat protein complex I subunit zeta 2) | 1 | -0.183 |
| GRIN2A (glutamate ionotropic receptor NMDA type subunit 2A) | 1 | 0.473 |
| PRKAA2 (protein kinase AMP-activated catalytic subunit alpha 2) | 1 | 0.135 |
| TBR1 (T-box brain transcription factor 1) | 1 | 0.09 |
| TTLL3 (tubulin tyrosine ligase like 3) | 1 | 0.228 |
| MED13L (mediator complex subunit 13L) | 1 | 0.302 |
